Data on one molecule can be found in patent US8017348B1, “Assay for Parkinson's Disease therapeutics” (Elan Pharma International Limited, priority 2005, dated 2011).

Like-named read-outs stand apart in the source and are kept apart here.

This experiment relates to Parkin. The experiment can be described thus: GFPu assay in HEK293 cells transfected with wild type Parkin (aggresome formation / proteasome function). It counts as cell-based. The note with it: Homo sapiens. The method, then: A summary of the finalized automation scheme is outlined in FIG. 12. Briefly, cells were manually transfected with Parkin using the Fugene Reagent (Roche) and then incubated for three hours at 37° C. After three hours of treatment with Fugene, transfection is over 80% complete (Roche personal communication). Compounds were then added to the cell plate at a final concentration of 10 uM using the Multimek™ Automated Pipettor. Compounds were incubated with cells for 45 hours at 37° C. and then the media was gently aspirated with the Multimek. A mixture of 1 ug/ml Hoechst dye and 4% paraformaldehyde were then added to the cells for 40 minutes at room temperature using the Titertek Multidrop™ Lab System. Cell plates were subsequently washed using the Tecan PowerWasher and then read on the Cellomcis ArrayScan. A detailed protocol outlining this process step by step is shown in Example 8. Using this protocol, we commonly achieved Z′ values above 0.6 and concomitant S/B ratios above 6 and therefore, the GFPu assay was ready for screening of the LOPAC library.
This example describes a protocol for the GFPu Assay in 96-well format. It will be appreciated that the protocol can be readily modified for other multi-well formats and that certain parameters can vary. […]
11) Read on the ArrayScan using the Target Activation Bioapplication. […]

As to `COc1cc2c(c(OC)c1OC)-c1ccc(OC)c(=O)cc1[C@@H](NC(C)=O)CC2` [ELN476311, colchicine], the half-maximal inhibitory concentration (IC50) by setting is: (HEK293, GFPu assay, Parkin transfected cells, eight 2-fold dilutions 10 uM to about 78 nM, read-out: Parkin IC50) less than 78 nM; (Parkin expressing HEK293 cells, read-out: IC50 in the GFPu assay) less than 78 nM.

For orientation: IC50 means the midpoint of a concentration-inhibition curve.
